Experimental data from the supplement of paper PMC4604168 (melanoma cell lines).
This is one part of the list. Single values are uncertain, as repeats are few or missing.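 Cells were imaged in 1,536-well plates, and nuclei stained with an antibody against cleaved PARP were counted against all DNA-stained nuclei to give the apoptosis fraction. Screening doses were chosen to leave most cells alive, and resting and induced cleaved-PARP levels differ strongly between cell lines.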

test system: WM3526; test: cleaved PARP positive nuclei fraction relative to DMSO control; melanoma cells; higher = more apoptosis; details: library dose: low library concentration; 72 h

Question: With `Cc1cc(N2CCOCC2)cc2[nH]c(-c3c(NC[C@@H](O)c4cccc(Cl)c4)cc[nH]c3=O)nc12` + CN(C)S(=O)(=O)c1ccc2c(c1)/C(=C/c1cc3c([nH]1)CCCC3)C(=O)N2 [SU6656] (first compound 0.2 µM, partner dose 0.4 µM) as the molecule, how does the “cleaved PARP positive nuclei fraction” value read?
Answer: Its value is 86.1%.

Question: For `C[C@@H]1CCN(C(=O)CC#N)C[C@@H]1N(C)c1ncnc2[nH]ccc12` + O=C1NC(=O)/C(=C/c2ccc(-c3ccc(F)cc3O)o2)S1 [AS252424] (first compound 1 µM, partner dose 1 µM), which “cleaved PARP positive nuclei fraction” value is on record?
Answer: Its value is 80.9%.

Question: `NC(=O)Nc1cc(-c2cccc(F)c2)sc1C(=O)N[C@H]1CCCNC1` + CC(C)CCN1c2nc(Nc3cc(F)c(O)c(F)c3)ncc2N(C)C(=O)C1C [BID1870] (first compound 0.02 µM, partner dose 0.2 µM) was tested. Which “cleaved PARP positive nuclei fraction” value did it give?
Answer: Its value is 90.8%.

Question: With `CO[C@@H]1[C@H](N(C)C(=O)c2ccccc2)C[C@H]2O[C@]1(C)n1c3ccccc3c3c4c(c5c6ccccc6n2c5c31)C(=O)NC4` [Midostaurin] + Cc1cc([N+](=O)[O-])ccc1NS(=O)(=O)c1cc(Cl)ccc1Cl [FH535] (first compound 0.08 µM, partner dose 1 µM) as the molecule, how does the “cleaved PARP positive nuclei fraction” value read?
Answer: The value was 203%.

Question: With `CO[C@@H]1[C@H](N(C)C(=O)c2ccccc2)C[C@H]2O[C@]1(C)n1c3ccccc3c3c4c(c5c6ccccc6n2c5c31)C(=O)NC4` [Midostaurin] + O=C(O)C(=O)Nc1sc2c(c1C(=O)O)CCNC2 [TCS401] (first compound 0.08 µM, partner dose 1.66667 µM) as the molecule, how does the “cleaved PARP positive nuclei fraction” value read?
Answer: The value was 33.5%.

Question: With `Cn1nnc2c(C(N)=O)ncn2c1=O` [temozolomide] + Cn1cc(/C=C2\C(=O)Nc3cccnc32)c2ccccc21 [GW441756] (first compound 2 µM, partner dose 0.4 µM) as the molecule, how does the “cleaved PARP positive nuclei fraction” value read?
Answer: Its value is 69.6%.

Question: Which “cleaved PARP positive nuclei fraction” value does the source give for `CC(C)(C)c1cnc(CSc2cnc(NC(=O)C3CCNCC3)s2)o1` + O=C(O)c1ccc(-c2c[nH]c3ncc(-c4ccccc4)cc23)cc1C1CCCC1 [GSK650394] (first compound 0.01 µM, partner dose 0.16 µM) here?
Answer: The value was 30.3%.

Question: For `O=C(CCCCCCC(=O)Nc1ccccc1)NO` [vorinostat] + CC(C)(C)c1cnc(CSc2cnc(NC(=O)C3CCNCC3)s2)o1 [SNS-032] (first compound 0.08 µM, partner dose 0.01 µM), which “cleaved PARP positive nuclei fraction” value is on record?
Answer: Its value is 42.3%.

Question: `C=CCNC1=C2C[C@@H](C)C[C@H](OC)[C@H](O)[C@@H](C)/C=C(\C)[C@H](OC(N)=O)[C@@H](OC)/C=C\C=C(/C)C(=O)NC(=CC1=O)C2=O` [Tanespimycin] + CC(C)(C)c1cnc(CSc2cnc(NC(=O)C3CCNCC3)s2)o1 [SNS-032] (first compound 0.002 µM, partner dose 0.01 µM) was tested. Which “cleaved PARP positive nuclei fraction” value did it give?
Answer: The value was 172%.

Question: For `CC(=O)c1c(C)c2cnc(Nc3ccc(N4CCNCC4)cn3)nc2n(C2CCCC2)c1=O` [palbociclib] + OCCn1cc(-c2cnc3nnn(Cc4ccc5ncccc5c4)c3n2)cn1 [PF04217903] (first compound 0.04 µM, partner dose 1 µM), which “cleaved PARP positive nuclei fraction” value is on record?
Answer: Its value is 207%.

Question: Which “cleaved PARP positive nuclei fraction” value does the source give for `C=CCNC1=C2C[C@@H](C)C[C@H](OC)[C@H](O)[C@@H](C)/C=C(\C)[C@H](OC(N)=O)[C@@H](OC)/C=C\C=C(/C)C(=O)NC(=CC1=O)C2=O` [Tanespimycin] + CN(NC(=O)CC(=O)NN(C)C(=S)c1ccccc1)C(=S)c1ccccc1 [STA4783] (first compound 0.002 µM, partner dose 0.006 µM) here?
Answer: The value was 36.3%.

Question: Which “cleaved PARP positive nuclei fraction” value does the source give for `CC1(C)NC(=O)N(c2ccc([N+](=O)[O-])c(C(F)(F)F)c2)C1=O` [nilutamide] + CCCCCCCCCCCC1=C(O)C(=O)C=C(O)C1=O [Embelin] (first compound 1 µM, partner dose 1.2 µM) here?
Answer: The value was 61.8%.

Question: With `Cn1c(Nc2ccc(C(F)(F)F)cc2)nc2cc(Oc3ccnc(-c4ncc(C(F)(F)F)[nH]4)c3)ccc21` + COCC[n+]1c2c(n(Cc3cnccn3)c1C)C(=O)c1ccccc1C2=O [YM155] (first compound 0.08 µM, partner dose 0.0004 µM) as the molecule, how does the “cleaved PARP positive nuclei fraction” value read?
Answer: Its value is 30.1%.
